PubChem BioAssay AID743121, NCATS, 2013
Shown is an unselected part of about 26,000 reagents tested. Of all reagents, 167 (0.63%) were called active. 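Calls are per gene from RSA p-values that are not deposited; an individual active-marked siRNA can sensitise only weakly.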 Unmarked entries are inactive. Reagents against one gene are numbered here. Further read-outs or replicates are left out here.

Purpose: 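Knock-downs that sensitise breast cancer cells to camptothecin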 (primary screen)
System: MDA-MB-231 cells, a human breast cancer line
Reagents: single siRNA against human genes, 20 nM siRNA (0.8 pmol per well)
Timing: 120 h (drug added 48 h after transfection, read 72 h later)
Challenge: camptothecin 20 nM (about EC30) for 72 h; vehicle 0.1% DMSO in parallel plates
Read-out: 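CellTiter-Glo ATP signal, scaled to control siRNA as percent viability; sensitisation given as log2 of untreated divided by camptothecin-treated viability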
Scale: log2 vehicle/camptothecin viability: higher = stronger sensitisation to camptothecin; viability with camptothecin: higher = more viable cells
Rule for the call: 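Each gene scored by redundant siRNA activity (RSA) over its individual siRNA ratios; a gene is called active at p < 0.001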

Target gene,reagent,log2 vehicle/camptothecin viability,viability with camptothecin (% of control)
GJA8,1,-0.0049,72.3
GJA8,2,-0.768,46.8
GJA8,3,-0.0879,48.3
GJA8,4,-0.523,69.9
RAP1A,1,-0.34,89.5
RAP1A,2,0.0666,78.9
RAP1A,3,-0.13,46.9
KCNJ16,1,-0.153,111
KCNJ16,2,-0.179,71.5
KCNJ16,3,-0.479,83
PCSK2,1,0.0577,44.2
PCSK2,2,-0.298,61.1
PCSK2,3,-0.229,79.1
PCSK2,4,-0.559,83.3
ALG6,1,0.206,68.3
ALG6,2,-0.247,79.8
ALG6,3,-0.15,60.8
GLRA2,1,-0.157,101
GLRA2,2,-0.232,95.2
GLRA2,3,-0.155,113
GLRA2,4,-0.135,77.7
HSD11B2,1,0.296,24.8
HSD11B2,2,0.257,44.6
HSD11B2,3,-0.333,87
NEK7,1,0.0842,31.5
NEK7,2,0.567,73.6
NEK7,3,-0.116,106
RET,1,-0.383,95.9
RET,2,-0.0264,91.4
RET,3,-0.459,78.8
RET,4,0.112,35.7
AQP2,1,-0.28,77.8
AQP2,2,-0.519,98.9
AQP2,3,-0.0516,69.4
PAPPA,1,-0.343,89.6
PAPPA,2,-0.0586,47.5
PAPPA,3,-0.226,51.1
PAPPA,4,-0.297,95
NUF2,1,-0.833,71.5
NUF2,2,-0.904,58.2
NUF2,3,-0.677,57.7
NUF2,4,-0.77,37.3
CAVIN3,1,-0.079,69.1
CAVIN3,2,-0.383,86
CAVIN3,3,0.0778,32.4
CAVIN3,4,-0.422,59.5
CRH,1,0.183,90.7
CRH,2,-0.153,60.5
CRH,3,0.204,74.3
CRH,4,-0.163,63.2
CYP11A1,1,0.487,44.3
CYP11A1,2,-0.214,108
CYP11A1,3,-0.553,75.2
CYP11A1,4,-0.147,89.9
CDC20,1,0.908,6.83
CDC20,2,-0.179,96.1
CDC20,3,-0.145,71.3
CDC20,4,-0.154,46.8
CD5,1,0.174,13.9
CD5,2,0.0309,56.2
CD5,3,-0.0163,52.7
CD5,4,-0.17,105
FGF7,1,-0.13,108
FGF7,2,-0.0989,48.7
FGF7,3,-0.064,103
FGF7,4,0.381,69.8
SIAH2,1,-0.113,101
SIAH2,2,-0.0922,105
SIAH2,3,-0.0285,37.5
SIAH2,4,-0.0178,82.4
DUSP19,1,-0.458,49.3
DUSP19,2,-0.322,77
DUSP19,3,-0.245,51.4
DUSP19,4,-0.207,68
SMOX,1,-0.461,92.5
SMOX,2,-0.346,74.2
SMOX,3,-0.173,81.6
SMOX,4,-0.187,65.6
BRIP1,1,0.19,41
BRIP1,2,-0.206,104
BRIP1,3,0.14,82.8
BRIP1,4,-0.165,104
CFI,1,-0.248,58.2
CFI,2,0.23,76.4
CFI,3,-0.00409,98.8
CFI,4,-0.135,65.1
VN1R4,1,0.42,49.7
VN1R4,2,-0.021,95.1
VN1R4,3,-0.0322,72.1
VN1R4,4,-0.126,52.8

Only “log2 vehicle/camptothecin viability”, for 5 of the entries above:
CD5 #4: -0.17
FGF7 #1: -0.13
FGF7 #2: -0.0989
FGF7 #3: -0.064
FGF7 #4: 0.381
